In paper doi:10.1101/2020.06.06.138156 (bioRxiv, 2020):
Read-outs that look alike come from different tables or passages of the source. These are yes or no findings as the source states them, for the method shown. Binding seen in cells or lysates may run through a third protein. Here binding means that the protein was enriched with, or labelled near, the bait; the list need not be complete.

The chains behind the UniProt entries cited, without tags or fusion partners.
UniProt P11940: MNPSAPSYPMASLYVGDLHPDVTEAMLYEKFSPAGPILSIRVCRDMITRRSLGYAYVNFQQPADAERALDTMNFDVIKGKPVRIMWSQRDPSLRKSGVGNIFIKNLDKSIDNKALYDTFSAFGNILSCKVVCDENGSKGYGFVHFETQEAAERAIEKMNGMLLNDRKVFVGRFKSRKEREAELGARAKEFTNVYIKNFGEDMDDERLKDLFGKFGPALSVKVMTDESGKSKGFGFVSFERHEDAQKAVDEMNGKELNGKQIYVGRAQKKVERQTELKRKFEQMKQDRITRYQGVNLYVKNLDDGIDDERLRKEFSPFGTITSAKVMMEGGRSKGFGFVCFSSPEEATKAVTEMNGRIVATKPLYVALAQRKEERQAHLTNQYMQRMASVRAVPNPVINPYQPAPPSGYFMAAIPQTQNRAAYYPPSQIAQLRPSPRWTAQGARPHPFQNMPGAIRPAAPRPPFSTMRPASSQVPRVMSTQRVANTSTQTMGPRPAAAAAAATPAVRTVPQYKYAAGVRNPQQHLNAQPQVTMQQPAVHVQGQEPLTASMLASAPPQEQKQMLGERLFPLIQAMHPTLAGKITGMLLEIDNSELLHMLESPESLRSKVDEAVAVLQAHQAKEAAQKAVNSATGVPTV
UniProt P26599: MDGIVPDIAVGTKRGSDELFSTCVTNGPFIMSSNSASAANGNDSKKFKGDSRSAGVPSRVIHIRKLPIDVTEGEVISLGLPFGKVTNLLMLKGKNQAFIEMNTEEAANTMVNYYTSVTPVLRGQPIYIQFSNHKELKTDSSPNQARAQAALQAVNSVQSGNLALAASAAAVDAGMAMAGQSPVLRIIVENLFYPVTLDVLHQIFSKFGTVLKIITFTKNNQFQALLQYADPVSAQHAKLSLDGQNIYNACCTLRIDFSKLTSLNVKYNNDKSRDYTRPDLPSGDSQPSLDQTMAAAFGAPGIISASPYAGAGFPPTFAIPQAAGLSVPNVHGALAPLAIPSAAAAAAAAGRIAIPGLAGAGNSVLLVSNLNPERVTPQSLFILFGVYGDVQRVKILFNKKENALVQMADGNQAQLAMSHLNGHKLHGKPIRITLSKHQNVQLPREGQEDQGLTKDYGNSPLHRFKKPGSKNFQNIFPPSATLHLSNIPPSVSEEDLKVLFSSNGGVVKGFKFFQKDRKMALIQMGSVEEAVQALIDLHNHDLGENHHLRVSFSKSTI
UniProt O75494: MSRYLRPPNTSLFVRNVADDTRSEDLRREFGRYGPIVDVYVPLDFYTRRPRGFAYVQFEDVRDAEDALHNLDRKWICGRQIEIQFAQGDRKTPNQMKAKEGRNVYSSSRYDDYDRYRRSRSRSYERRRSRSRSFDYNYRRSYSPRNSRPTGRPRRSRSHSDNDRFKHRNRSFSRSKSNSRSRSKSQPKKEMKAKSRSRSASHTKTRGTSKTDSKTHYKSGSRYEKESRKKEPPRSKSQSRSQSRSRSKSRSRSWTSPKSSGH

Columns and labels:
Test in all cases: affinity purification with mass spectrometry
[1] = biological target: T1, Halo-SETD2C (1404-2564) (human) (UniProt Q9BYW2)
T1 sequence: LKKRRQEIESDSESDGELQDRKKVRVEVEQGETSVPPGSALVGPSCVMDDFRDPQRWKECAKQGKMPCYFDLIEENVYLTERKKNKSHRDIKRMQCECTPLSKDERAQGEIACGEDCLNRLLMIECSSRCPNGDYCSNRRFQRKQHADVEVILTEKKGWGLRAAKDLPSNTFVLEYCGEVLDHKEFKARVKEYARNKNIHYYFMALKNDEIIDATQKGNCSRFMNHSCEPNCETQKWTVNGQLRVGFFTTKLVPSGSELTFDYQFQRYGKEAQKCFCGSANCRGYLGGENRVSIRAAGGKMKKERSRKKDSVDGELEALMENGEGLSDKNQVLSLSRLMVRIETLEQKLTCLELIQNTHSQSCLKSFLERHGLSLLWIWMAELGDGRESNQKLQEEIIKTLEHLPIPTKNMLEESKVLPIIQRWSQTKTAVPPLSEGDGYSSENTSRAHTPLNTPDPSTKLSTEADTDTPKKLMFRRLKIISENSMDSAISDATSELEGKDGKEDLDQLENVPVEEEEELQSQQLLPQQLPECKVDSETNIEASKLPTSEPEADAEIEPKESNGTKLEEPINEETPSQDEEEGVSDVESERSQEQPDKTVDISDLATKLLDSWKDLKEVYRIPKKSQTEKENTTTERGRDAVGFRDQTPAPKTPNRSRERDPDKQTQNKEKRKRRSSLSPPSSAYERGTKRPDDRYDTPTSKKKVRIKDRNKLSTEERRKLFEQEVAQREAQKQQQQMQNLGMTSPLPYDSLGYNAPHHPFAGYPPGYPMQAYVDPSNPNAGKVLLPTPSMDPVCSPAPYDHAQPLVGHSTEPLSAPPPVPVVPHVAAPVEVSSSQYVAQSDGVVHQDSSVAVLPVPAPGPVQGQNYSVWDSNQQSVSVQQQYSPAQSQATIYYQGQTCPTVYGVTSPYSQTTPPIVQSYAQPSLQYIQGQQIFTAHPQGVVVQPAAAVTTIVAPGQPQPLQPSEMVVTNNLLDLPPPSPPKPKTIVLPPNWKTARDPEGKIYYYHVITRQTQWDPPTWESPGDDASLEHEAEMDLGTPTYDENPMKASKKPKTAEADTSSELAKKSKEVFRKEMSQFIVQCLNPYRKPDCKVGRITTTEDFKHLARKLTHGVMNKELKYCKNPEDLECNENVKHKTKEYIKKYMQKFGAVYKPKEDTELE

[2] = biological target: T2, Halo-hnRNP L 162-321 (human) (UniProt P14866)
T2 sequence: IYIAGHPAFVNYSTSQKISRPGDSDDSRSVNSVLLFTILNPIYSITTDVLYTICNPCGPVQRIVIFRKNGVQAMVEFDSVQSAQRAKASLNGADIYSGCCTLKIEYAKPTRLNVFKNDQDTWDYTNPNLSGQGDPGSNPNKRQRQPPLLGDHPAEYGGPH

[3] = biological target: T1, Halo-SETD2C (1404-2564) (human); remark: listed apart in the source

“polyadenylate-binding protein 1 (endogenous) (from UniProt P11940 1-636)” was tested, and the binding [1] was “binds”.

For “polypyrimidine tract binding protein 1 (endogenous) (from UniProt P26599 1-557)”, the binding [1] was “binds”.

In the case of “serine/arginine-rich splicing factor 10 (endogenous) (from UniProt O75494 1-262)”, the binding [1] is reported as “binds”.

B1: Mediator complex subunit Med23 (endogenous) (protein, UniProt Q9ULK4 1-1368)
chain: METQLQSIFEEVVKTEVIEEAFPGMFMDTPEDEKTKLISCLGAFRQFWGGLSQESHEQCIQWIVKFIHGQHSPKRISFLYDCLAMAVETGLLPPRLVCESLINSDTLEWERTQLWALTFKLVRKIIGGVDYKGVRDLLKVILEKILTIPNTVSSAVVQQLLAAREVIAYILERNACLLPAYFAVTEIRKLYPEGKLPHWLLGNLVSDFVDTFRPTARINSICGRCSLLPVVNNSGAICNSWKLDPATLRFPLKGLLPYDKDLFEPQTALLRYVLEQPYSRDMVCNMLGLNKQHKQRCPVLEDQLVDLVVYAMERSETEEKFDDGGTSQLLWQHLSSQLIFFVLFQFASFPHMVLSLHQKLAGRGLIKGRDHLMWVLLQFISGSIQKNALADFLPVMKLFDLLYPEKEYIPVPDINKPQSTHAFAMTCIWIHLNRKAQNDNSKLQIPIPHSLRLHHEFLQQSLRNKSLQMNDYKIALLCNAYSTNSECFTLPMGALVETIYGNGIMRIPLPGTNCMASGSITPLPMNLLDSLTVHAKMSLIHSIATRVIKLAHAKSSVALAPALVETYSRLLVYMEIESLGIKGFISQLLPTVFKSHAWGILHTLLEMFSYRMHHIQPHYRVQLLSHLHTLAAVAQTNQNQLHLCVESTALRLITALGSSEVQPQFTRFLSDPKTVLSAESEELNRALILTLARATHVTDFFTGSDSIQGTWCKDILQTIMSFTPHNWASHTLSCFPGPLQAFFKQNNVPQESRFNLKKNVEEEYRKWKSMSNENDIITHFSMQGSPPLFLCLLWKMLLETDHINQIGYRVLERIGARALVAHVRTFADFLVYEFSTSAGGQQLNKCIEILNDMVWKYNIVTLDRLILCLAMRSHEGNEAQVCYFIIQLLLLKPNDFRNRVSDFVKENSPEHWLQNDWHTKHMNYHKKYPEKLYFEGLAEQVDPPVQIQSPYLPIYFGNVCLRFLPVFDIVIHRFLELLPVSKSLETLLDHLGGLYKFHDRPVTYLYNTLHYYEMHLRDRAFLKRKLVHAIIGSLKDNRPQGWCLSDTYLKCAMNAREENPWVPDDTYYCRLIGRLVDTMAGKSPGPFPNCDWRFNEFPNPAAHALHVTCVELMALAVSGKEVGNALLNVVLKSQPLVPRENITAWMNAIGLIITALPEPYWIVLHDRIVSVISSPSLTSETEWVGYPFRLFDFTACHQSYSEMSCSYTLALAHAVWHHSSIGQLSLIPKFLTEVLLPIVKTEFQLLYVYHLVGPFLQRFQQERTRCMIEIGVAFYDMLLNVDQCSTHLNYMDPICDFLYHMKYMFTGDSVKEQVEKIICNLKPALKLRLRFITHISKMEPAAVPPQAMNSGSPAPQSNQVPVSLPVTQ
In the case of B1, the binding [2] is reported as “binds”.

B2: serine/arginine-rich splicing factor 3 (endogenous) (protein, UniProt P84103 1-164)
chain: MHRDSCPLDCKVYVGNLGNNGNKTELERAFGYYGPLRSVWVARNPPGFAFVEFEDPRDAADAVRELDGRTLCGCRVRVELSNGEKRSRNRGPPPSWGRRPRDDYRRRSPPPRRRSPRRRSFSRSRSRSLSRDRRRERSLSRERNHKPSRSFSRSRSRSRSNERK
In the case of B2, the binding [3] is reported as “binds”.
